## Screening data

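Genome-wide siRNA knockdown in TC32 Ewing sarcoma cells, comparing luciferase light from an NR0B1-promoter reporter with a CMV-promoter reporter 48 hours after transfection. Each siRNA was applied at 20 nM. A z-score of the log NR0B1-over-CMV signal, less the median of siRNAs with the same seed; more negative means a stronger specific loss of the NR0B1 reporter.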

This is part of the screen; most of the strongest results are not listed here. Sequences are the guide (antisense) strand, without overhang.

{"sequence": "UGAUUGAGAUGUGAGAAGC", "target gene": "SPACA4", "seed-corrected z-score": "-0.1281"}
{"sequence": "UUAAGGGUAUCUGAUUUGG", "target gene": "ODAM", "seed-corrected z-score": "0.2367"}
{"sequence": "UCAUCCAAAAGUGAGGGCC", "target gene": "CDC42EP3", "seed-corrected z-score": "0.2396"}
{"sequence": "AUAGGUCUCCUUAAUAUGC", "target gene": "HSD17B6", "seed-corrected z-score": "-1.44"}
{"sequence": "UUUGUUGGAGUAUUGAUCC", "target gene": "ZNF281", "seed-corrected z-score": "-0.7781"}
{"sequence": "AAGAUCUAAAAACUCAUCC", "target gene": "GPSM2", "seed-corrected z-score": "-0.801"}
{"sequence": "UUACGGUAUGGUUCUUGGG", "target gene": "MTMR12", "seed-corrected z-score": "-0.2504"}
{"sequence": "UUUCUUCGGAGCUUCACCG", "target gene": "ARHGEF34P", "seed-corrected z-score": "0.9437"}
{"sequence": "AAGUCAAUGACAAUCUUGC", "target gene": "DCTD", "seed-corrected z-score": "0.8525"}
{"sequence": "UCUGCGAAGAUGAUGCUGG", "target gene": "NUP210", "seed-corrected z-score": "0.0881"}
{"sequence": "UGCCUUGAGACCUAAACUG", "target gene": "PPP2R5E", "seed-corrected z-score": "-0.5625"}
{"sequence": "UUUGUAUCUCCAUAAAACC", "target gene": "UGT2A1", "seed-corrected z-score": "-1.282"}
{"sequence": "UCUUAUAGAACUGCUCCCG", "target gene": "UBE2G2", "seed-corrected z-score": "0.1373"}
{"sequence": "UGAGUAACGUGACAUUUGC", "target gene": "TFAP2B", "seed-corrected z-score": "-0.1763"}
{"sequence": "UGAGGAUAGCGUGUUGAUG", "target gene": "PANX2", "seed-corrected z-score": "0.2373"}
{"sequence": "UAUUUGAGCUCAUAGUCAC", "target gene": "RAVER1", "seed-corrected z-score": "0.1355"}
{"sequence": "AUAGGUUUGACUUCCUGCC", "target gene": "KLK2", "seed-corrected z-score": "0.7098"}
{"sequence": "UUUAGAUCCAGGAUACGCC", "target gene": "ARNT", "seed-corrected z-score": "-0.4907"}
{"sequence": "AAGACAAUCGUUUCCAUUC", "target gene": "PCMTD2", "seed-corrected z-score": "-0.007583"}
{"sequence": "UCUGGAGGGACAAAUCUGC", "target gene": "YIPF5", "seed-corrected z-score": "-0.4343"}
{"sequence": "UUAUGUAUAGUUAGGUUUG", "target gene": "ZNF107", "seed-corrected z-score": "0.3139"}
{"sequence": "UGAACUAAAGUCAAUAUUU", "target gene": "CCDC30", "seed-corrected z-score": "1.13"}
{"sequence": "UAAAUGUUGCUUUAUCCAC", "target gene": "ARHGDIB", "seed-corrected z-score": "-1.377"}
{"sequence": "UAUAGUCCAAUACCAACAG", "target gene": "EDNRB", "seed-corrected z-score": "-0.01657"}
{"sequence": "UGGUAAACCAAGAGGAUCG", "target gene": "NAALAD2", "seed-corrected z-score": "-0.1546"}

The results are deposited in PubChem (AID1159506; NCATS, 2015).